Record: PubChem BioAssay AID504793 (Drosophila RNAi Screening Center, 2011)

Purpose: 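Genes required for cells to halt at G2/M after double-strand DNA breaks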 (primary screen)
System: Drosophila S2R+ cells
Reagent: long dsRNA against Drosophila genes, about 0.25 µg dsRNA per well
Timing: 4 days of dsRNA, then 4 hours of drug before read-out
Conditions: doxorubicin 0.5 µM for 4 hours to cause double-strand breaks, in cells also given a low, harmless dose of dsRNA against nbs to sensitise the assay
Measurement: 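Per-well count of mitotic cells stained for phospho-histone H3 after doxorubicin exposure, used as mitotic index; counts are raw and not normalised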
Direction: mitotic cells: higher = more cells in mitosis, weaker G2 arrest
Rule for the call: 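Genes are called active only when high mitotic counts were reproduced with independent dsRNAs and mitosis was checked for delay without damage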
Calls: active = confirmed in follow-up tests; inactive = not confirmed
The screen tested about 23,000 reagents; this is an unselected part of those with a known target gene and a result. In the full data, 62 (0.27%) got an active call. 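Calls come from follow-up tests whose scores are not deposited, so confirmed genes may have low counts here; counts are not normalised per plate.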 The raw values are shown without normalisation. A plus sign joins genes that one reagent is predicted to hit.

target	DRSC id	mitotic cells, replicate 1	mitotic cells, replicate 2	outcome
Pph13	DRSC23162	10		inactive
Pph13	DRSC29483	7		inactive
Acph-1	DRSC14103	13		inactive
cpx	DRSC11999	8		inactive
Pfrx	DRSC18856	7		inactive
Pfrx	DRSC19315	4		inactive
Pfrx	DRSC28602	6		inactive
Taf6	DRSC11299	5		inactive
CR42546	DRSC03711	5		inactive
CG4440	DRSC02747	2		inactive
CG4440	DRSC28042	3		inactive
az2	DRSC07580	7		inactive
Lztr1	DRSC18176	20		inactive
Lztr1	DRSC18647	21		inactive
Lztr1	DRSC26706	16		inactive
CG2100	DRSC12303	6		inactive
CG42375 + CG9288	DRSC16468	4		inactive
ash2	DRSC16902	7		inactive
Sfxn1-3	DRSC12183	2		inactive
La	DRSC03358	7		inactive
Oatp74D	DRSC09491	4		inactive
Oatp74D	DRSC10883	6		inactive
CG2182	DRSC12308	12		inactive
CG2182	DRSC30052	6		inactive
sncRNA:430e + His2A:CG33859 + His2A:CG33817 + 42 more	DRSC25850	1		inactive
scu	DRSC20369	11		inactive
scu	DRSC27026	6		inactive
inv	DRSC07633	6		inactive
inv	DRSC29580	6		inactive
CG13048	DRSC09929	6		inactive
CG13048	DRSC26938			inactive
CG4820	DRSC15654	6		inactive
CG32264	DRSC08061	12		inactive
CG32264	DRSC08167	2		inactive
CG32264	DRSC08169	5		inactive
CG32264	DRSC08285	12	19	inactive
CG32264	DRSC25774	5		inactive
CG13359	DRSC18539	11		inactive
CG13359	DRSC26791	6		inactive
Msp300	DRSC00856	6		inactive
Msp300	DRSC00857	14		inactive
Msp300	DRSC00858	5		inactive
Msp300	DRSC02360	5		inactive
Msp300	DRSC03369	3		inactive
Msp300	DRSC03370	5		inactive
kto	DRSC10983	2		inactive
Cisd2	DRSC14904	9		inactive
lncRNA:CR33938	DRSC37840	17		inactive
lncRNA:CR33938	DRSC39117	11		inactive
GIIIspla2	DRSC18094	3		inactive
GIIIspla2	DRSC27426	8		inactive
CG18135	DRSC10295	5		inactive

Continued (6 carried over from the part before).
target	DRSC id	mitotic cells, replicate 1	mitotic cells, replicate 2	outcome
Cisd2	DRSC14904	9		inactive
lncRNA:CR33938	DRSC37840	17		inactive
lncRNA:CR33938	DRSC39117	11		inactive
GIIIspla2	DRSC18094	3		inactive
GIIIspla2	DRSC27426	8		inactive
CG18135	DRSC10295	5		inactive
SdhBL	DRSC20039	8		inactive
CG5510	DRSC15823	11		inactive
CG3517	DRSC15492	8		inactive
CG3517	DRSC26928	4		inactive
Coq2	DRSC16516	5		inactive
Coq2	DRSC21366	14		inactive
Coq2	DRSC29659	4		inactive
ppk31	DRSC13811	19		inactive
ppk31	DRSC25391	9		inactive
Alp5	DRSC14269	10		inactive
Alp5	DRSC29539	6		inactive
CG7365	DRSC10824	11		inactive
CG7365	DRSC28680	2		inactive
cort	DRSC02148	7		inactive
cort	DRSC26829	5		inactive
mRpS2	DRSC00550	6		inactive
CheB38a	DRSC03205	1	10	inactive
CheB38a	DRSC29814	7		inactive
CG4995	DRSC02801	8		inactive
Obp58b	DRSC04161	3		inactive
PKD	DRSC16200	6		inactive
isoQC	DRSC11790	3		inactive
isoQC	DRSC28241	7		inactive
CG11145	DRSC06049	5		inactive
dare + CG30033	DRSC22908	5		inactive
RhoGAP102A	DRSC17145	14		inactive
CG4537	DRSC02756	2		inactive
Fa2h	DRSC06608	2		inactive
Fa2h	DRSC06609	4		inactive
CG42662 + CG30080	DRSC05571	7		inactive
shakB	DRSC20585	7		inactive
shakB	DRSC22817	13		inactive
shakB	DRSC26262	6		inactive
frj	DRSC03250	8		inactive
CG30089	DRSC06126	10		inactive
CG30089	DRSC06267	1		inactive
CG30089	DRSC06268	11		inactive
CG13737	DRSC10064	6		inactive
CG17754	DRSC18131	8		inactive
CG14113	DRSC10116	6		inactive
CG9667	DRSC16535	5		inactive
CG9667	DRSC23667	11		inactive
CG30470 (retired record)	DRSC05553	3		inactive
CG30470 (retired record)	DRSC06260	12		inactive
CG30470 (retired record)	DRSC06261	8		inactive
CG30470 (retired record)	DRSC06777	8		inactive
CG30470 (retired record)	DRSC23183			inactive
CG13248	DRSC11696	6		inactive
CG13248	DRSC24446	6		inactive
car	DRSC20316	7		inactive
car	DRSC26230	5		inactive
CG14500	DRSC06471	10		inactive
Task7	DRSC16477	10		inactive
Task7	DRSC26662	9		inactive
yip7	DRSC11410	1		inactive
yip7	DRSC25234	5		inactive
CRMP	DRSC12073	9		inactive
CRMP	DRSC12345	4		inactive
CRMP	DRSC27638	12		inactive
TwdlP	DRSC14734	6		inactive
Syn	DRSC16876	5		inactive
Syn	DRSC26448	9		inactive
CG33230	DRSC08602	2		inactive
PK2-R2	DRSC16448	5		inactive
PK2-R2	DRSC25536	8		inactive
CG5953	DRSC01546	4		inactive
CG5953	DRSC28725	3		inactive
mu2	DRSC08726	3		inactive
mu2	DRSC21534	4		inactive
CG4593	DRSC18374	7		inactive
CG4593	DRSC29173	3		inactive
prom	DRSC04684	4		inactive
prom	DRSC21463	9		inactive
prom	DRSC22088	15		inactive
prom	DRSC24876	4		inactive
prom	DRSC26828	6		inactive
prom	DRSC27557	8		inactive
CG17683	DRSC21160	2		inactive
CG17683	DRSC27534	5		inactive
CG3726	DRSC23143	8		inactive
CG3726	DRSC27453	1		inactive
Rcc1	DRSC09684	4		inactive
Rcc1	DRSC28981	3		inactive
mEFTu2	DRSC06163	4		inactive
CG7299	DRSC03043	7		inactive
CG7299	DRSC25553	6		inactive
CG43328	DRSC05640	6		inactive
Shmt	DRSC18264	11		inactive
